{"source": "paper PMC11157272", "about": "“Fructose-1-kinase has pleiotropic roles in Escherichia coli” (The Journal of Biological Chemistry, 2023)", "key": {"[1]": {"molecular_target": "T1, Cra, WT, constitutively over-expressed in crude lysate (Escherichia coli (gene from strain 3.300)) (UniProt P0ACP1)", "T1 sequence (looked up)": "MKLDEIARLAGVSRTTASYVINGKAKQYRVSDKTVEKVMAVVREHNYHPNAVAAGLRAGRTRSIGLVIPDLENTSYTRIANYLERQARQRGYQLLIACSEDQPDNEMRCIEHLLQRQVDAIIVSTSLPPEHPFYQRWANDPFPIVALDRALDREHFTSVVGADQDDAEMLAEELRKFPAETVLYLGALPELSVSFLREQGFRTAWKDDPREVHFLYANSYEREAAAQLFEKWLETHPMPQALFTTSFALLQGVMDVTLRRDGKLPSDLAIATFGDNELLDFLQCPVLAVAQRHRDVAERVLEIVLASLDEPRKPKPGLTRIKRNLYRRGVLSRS", "assay": "pull-down", "conditions": "no fructose, no FruK detected; 5' biotin; protein in a lysate after overexpression; residues 1-334; label: biotin"}, "[2]": {"tested_on": "Cra, WT, constitutively over-expressed in crude lysate + FruK, endogenous", "assay": "pull-down", "conditions": "cells grown with 20 mM fructose; 5' biotin; protein in a lysate after overexpression; label: biotin"}, "[3]": {"molecular_target": "T2, Cra (FruR), WT (Escherichia coli (gene from strain 3.300)) (UniProt P0ACP1)", "T2 sequence (looked up)": "T1 sequence (looked up)", "assay": "AFM", "conditions": "Cra alone, often kinks DNA, some DNAs with two dimers; recombinant protein; residues 1-334"}, "[4]": {"tested_on": "Pyruvate kinase (PYK) (Escherichia coli)", "assay": "BLI", "conditions": "PYK without Cra; 5' biotin; BLI: 50 mM Hepes, 100 mM KCl, 0.1 mM EDTA, 10 mM MgCl2, 0.3 mM DTT, 0.1 mg/mL BSA, pH 7.0, about room temperature; concentrations as dimer; recombinant protein; label: biotin"}}, "note": "For some of these results: Protein sequences can lack the tags named with them. For some of these results: The exact form of at least one protein or probe is not confirmed. For some of these results: A negative result means that nothing was seen under these conditions. For some of these results: At least one result comes from cells or an extract, where the contact may be indirect.", "data": [{"sequence": "AATGCCTGCATATGGCAGCTTGAAGCTGAAACGTTTCATTTTGCAGCGATCGTTAC (double strand) [Ocra]", "values": [{"measurement": "binding result", "setting": "[1]", "value": "binds"}, {"measurement": "binding result", "setting": "[2]", "value": "binds"}]}, {"sequence": "ATAAGCTTGCTGACGCTGCTGAAATGAAATTGCTGATAACGGATTTTCCCATCAGCAATTAGGAAAAATGGCAAAAAATTGTGCAGCACATCAAACTTTTGCTCATAACTTTACGGCTTTCCTTGCGTGCTGAAACAGAAGTATTATGCTTTCTTGAAACGTTTCAGCGCGATCTTGTCTTTAACCCTAAGCCAGGTTGGCGCTTTTTTTCTCATAGAGGCTGAATCGTTTCAATTCAGCAAGAGAGGAGAACTATGTTCCAGTTATCCGTACAGGACATCCATCCGGGCGAAAAGGCCGGAGACAAAGAAGAGGCGATTCGCGAATTCAT (double strand) [fruBKA promoter 331 bp (fruBdistal + fruBproximal)]", "values": [{"measurement": "binding result", "setting": "[3]", "value": "binds"}]}, {"sequence": "ATGCATGTTGTGTGGTTCTTGAAACGTTTCAGCTCACACAGGTCC (double strand) [fruBproximal]", "values": [{"measurement": "binding result", "setting": "[4]", "value": "no binding"}]}]}
